Binding data for 3 substances are collected here from article PMC11263707.

Sequences of proteins named here, by UniProt entry; tags and fusion partners are left off.
UniProt P06748: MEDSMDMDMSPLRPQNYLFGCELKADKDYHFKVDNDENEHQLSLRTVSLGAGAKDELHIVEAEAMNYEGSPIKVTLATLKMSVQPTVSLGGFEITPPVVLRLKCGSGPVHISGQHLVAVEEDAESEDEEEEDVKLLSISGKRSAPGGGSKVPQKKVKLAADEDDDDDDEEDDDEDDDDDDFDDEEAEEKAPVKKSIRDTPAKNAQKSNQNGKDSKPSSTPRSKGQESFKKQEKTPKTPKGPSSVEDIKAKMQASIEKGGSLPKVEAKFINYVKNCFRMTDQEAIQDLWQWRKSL

Assay [1] addresses nucleophosmin 1 (NPM1), endogenous (human (endogenous in HEK293T, A498, CAKI-1)) (UniProt P06748). The assay is described as follows: co-IP; endogenous proteins; antibody to ALDH9A1 or to NPM1 or IgG, lysate of HEK293T cells (repeated in A498 and CAKI-1 cells); protein A/G magnetic beads, overnight at 4 °C, RIPA wash; western blot.
Assay [2] deals with T1, Flag-ALDH9A1 (human) (UniProt P49189).
T1 sequence: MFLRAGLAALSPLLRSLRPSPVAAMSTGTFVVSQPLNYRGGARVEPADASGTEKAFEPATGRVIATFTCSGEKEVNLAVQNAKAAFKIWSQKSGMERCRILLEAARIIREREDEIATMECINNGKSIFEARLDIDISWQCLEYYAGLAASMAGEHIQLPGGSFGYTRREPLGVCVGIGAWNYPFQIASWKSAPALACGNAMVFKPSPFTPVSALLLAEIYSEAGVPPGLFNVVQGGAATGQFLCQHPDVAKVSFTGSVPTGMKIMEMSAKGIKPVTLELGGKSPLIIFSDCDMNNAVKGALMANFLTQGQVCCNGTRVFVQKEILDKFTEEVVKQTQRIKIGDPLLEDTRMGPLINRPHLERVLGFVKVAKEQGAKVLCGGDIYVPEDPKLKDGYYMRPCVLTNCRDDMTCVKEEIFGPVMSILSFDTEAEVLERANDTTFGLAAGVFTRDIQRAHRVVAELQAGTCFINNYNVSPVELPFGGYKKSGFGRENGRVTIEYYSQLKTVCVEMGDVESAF
The assay is described as follows: co-IP; Flag-ALDH9A1 and Myc-NPM1 forced expressed in A498 and CAKI-1 cells; Flag immunoprecipitation and Myc immunoprecipitation; western blot. For orientation: Immunoblotting shows a protein as a band on a membrane.

For assay [3], the target named is ALDH9A1 (endogenous) (human (endogenous in HEK293T, A498, CAKI-1)) (UniProt P49189). The assay is described as follows: co-IP; endogenous proteins; antibody to ALDH9A1 or to NPM1 or IgG, lysate of HEK293T cells (repeated in A498 and CAKI-1 cells); protein A/G magnetic beads, overnight at 4 °C, RIPA wash; western blot.
The target of assay [4] is T1, Flag-ALDH9A1 (human). The assay is described as follows: co-IP; anti-flag immunoprecipitation from A498 and CAKI-1 cells with Flag-ALDH9A1; western blot for the endogenous candidates of the LC-MS/MS.

These are yes or no findings as the source states them, for the method shown. Binding seen in cells or lysates may run through a third protein. Some results given as binding are weak or reduced against the parent protein; the word gives no strength. For some of these results: Tags and fused reporters may be left off the sequences shown.

Consider “ALDH9A1 (endogenous) (from UniProt P49189 1-494) (enzyme)”, for which, in assay [1], the binding result was “binds”.

Regarding Myc-NPM1 (from UniProt P06748 1-294), in the assay with Flag-ALDH9A1 (human) [2], the binding result is listed as “binds”.

“nucleophosmin 1 (NPM1), endogenous (from UniProt P06748 1-294)”: the binding result (in assay [3]; in the assay with Flag-ALDH9A1 (human) [4]) was “binds” in each case.
